Data taken from paper PMC3959197.
These are yes or no findings as the source states them, for the method shown. Binding seen in cells or lysates may run through a third protein.

Molecular target: MyD88^ΔCTE (Drosophila)
Assay: co-IP; S2 cells co-transfected, lysed 48 h after transfection (150 mM NaCl, 50 mM Tris-HCl pH 7.4, 10% glycerol, 0.5% Triton X-100); immunoprecipitated with anti-Myc beads, immunoblot (Fig. 4b, 5f)

B1: Drosophila Pellino (enzyme, UniProt O77237 1-424)
chain: MVKRTDGTESPILAEDGGDGHDKPRLRYGELVILGYNGYLPQGDRGRRRSKFVLHKRTEASGVKRSKHYIVQSPQTSKAILDANQHSISYTLSRNQAVIVEYKEDTETDMFQVGRSSESPIDFVVMDTLPGDKKDAKVMQSTISRFACRILVNRCEPAKARIFAAGFDSSRNIFLGEKATKWQDNVEIDGLTTNGVLIMHPKGSFCGGNAKCGLWRECSVGGDVFSLRESRSAQQKGQPIYDECNILQDGTLIDLCGATLLWRSAEGLQHSPTKHDLEKLIDAINAGRPQCPVGLNTLVIPRKVNIGDQVNQPYVYLNCGHVQGHHDWGQDENTGARRCPMCLELGPVVTLCMGLEPAFYVDVGAPTYAFNPCGHMATEKTVKYWANVEIPHGTNGFQAVCPFCATPLDGATGYIKLIFQDNLD
  binding: no binding
